Laboratory results taken from PubChem BioAssay AID1259415 (National Center for Advancing Translational Sciences (NCATS), 2018).
Out of some 410,000 compounds screened, about 18,000 (4.4%) were called active. Inconclusive results, whose numbers are uncertain, are shown with a selection of clear calls. Cut-off read from the data, not from the text of the source: active = activity change below about -60%; inconclusive = no clear call, values can overlap the other calls; inactive = above about -39%.

Test: qHTS Assay for inhibitors of the human cytomegalovirus (HCMV)
Conditions: HFF cells, HCMV-luciferase reporter, 72 h; at 57.5 µM; stronger effect = lower value
Summary of the method: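 Inhibition of viral replication was scored as loss of reporter luminescence in HFFs infected with HCMV-luciferase (MOI 1 PFU/cell) for 72 h; compounds tested at 2 doses, normalized to buffer and Salinomycin controls.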
% is set by controls: 0 for no effect and ±100 for the full control effect.

SMILES	activity change, negative = inhibition
O=C(NCCCC1CCCC1)C1CCC(=O)N(Cc2cccc(C(F)(F)F)c2)C1 (stereo unspecified)	inactive: 22.8%
O=C(Nc1ccccc1F)c1nc(S(=O)(=O)Cc2ccccc2F)ncc1Cl	active: -109%
CC1CCCCC12NC(=O)N(CC(=O)c1ccc(Cl)s1)C2=O (stereo unspecified)	inconclusive: -46%
CCn1c(=O)c(=O)[nH]c2cc(C(=O)NC3CC3)ccc21	inactive: -2.63%
Cc1cccc(CNc2ncnc3ccc(-c4ccc5c(c4)OCO5)cc23)c1	inconclusive: -48.8%
CCCOP(=O)(OCCC)c1c([N+](=O)[O-])cc(C(F)(F)F)cc1[N+](=O)[O-]	inconclusive: -57.8%
O=C(Nc1ccc2c(c1)CCCN2C(=O)c1cccs1)c1cccc(C(F)(F)F)c1	active: -70.3%
CC1Cc2nc(SCC(=O)Nc3nc4ccccc4s3)n(C)c(=O)c2S1 (stereo unspecified)	inconclusive: -48.4%
S=c1[nH]nc(-c2ccccn2)n1/N=C/c1ccc(-c2ccccc2Br)o1	inconclusive: -45.7%
COc1ccc(-n2c(SCC(=O)Nc3nc(C)cs3)nnc2-c2ccoc2C)cc1	inactive: -28.7%
O=C(Nc1ccc(N2CCCC2)c(S(=O)(=O)Nc2cccc(C(F)(F)F)c2)c1)c1cccs1	inconclusive: -58.5%
CN(C)C(=O)C(OC(=O)c1ccc2c(c1)CCCC2)c1ccccc1 (stereo unspecified)	inactive: -14.3%
CCC(=O)NC(=S)Nc1ccc(NC(=O)c2ccco2)c(Cl)c1	inconclusive: -40.8%
COc1ccc(CNC(=O)CN2C(=O)c3ccccc3S2(=O)=O)cc1	inconclusive: -42.6%
COCCN(C(=O)CNC(=O)c1ccco1)C(C(=O)NC1CCCC1)c1ccc(F)cc1 (stereo unspecified)	inconclusive: -44.1%
COc1cc(C(=O)NC2CCN(C)CC2)ccc1Nc1ncc2c(n1)N(C1CCCCC1)CCC(=O)N2C	inconclusive: -48.1%
N#C/C(=C\c1ccccc1OCc1ccc(C(=O)O)cc1)C(=O)Nc1ccc(O)cc1	inactive: -31.6%
Oc1ccc2ccccc2c1CN1CCN(c2ccccc2)CC1	inactive: 33.6%
COc1cccc(NC(=O)C2(C)CCN2Cc2ccccc2OC(F)F)c1 (stereo unspecified)	inconclusive: -43.1%
CCOC(=O)n1c(=O)oc2ccccc21	active: -96%
CCOc1ccc2nc(NC(=O)COc3ccc(N(C)S(=O)(=O)c4ccc(C)cc4)cc3)sc2c1	inconclusive: -47.6%
O=C(COc1ccc(F)cc1)Nc1ccc2nc(SCC(=O)N3CCCC3)sc2c1	inactive: -20.6%

Of the compounds above, 4 contain an aryl methoxy group.
SMILES	activity change, negative = inhibition
COc1ccc(-n2c(SCC(=O)Nc3nc(C)cs3)nnc2-c2ccoc2C)cc1	inactive: -28.7%
COc1ccc(CNC(=O)CN2C(=O)c3ccccc3S2(=O)=O)cc1	inconclusive: -42.6%
COc1cc(C(=O)NC2CCN(C)CC2)ccc1Nc1ncc2c(n1)N(C1CCCCC1)CCC(=O)N2C	inconclusive: -48.1%
COc1cccc(NC(=O)C2(C)CCN2Cc2ccccc2OC(F)F)c1 (stereo unspecified)	inconclusive: -43.1%

Next part:

SMILES	activity change, negative = inhibition
Fc1ccc(/C=N/NC(=S)Nc2cccnc2)cc1F	inconclusive: -54.6%
Cc1cccc(C)c1Nc1c(-c2ccccc2Cl)nc2cnccn12	inconclusive: -43.5%
C=CCn1c(SCC(=O)N2CCN(c3ccc(F)cc3)CC2)nnc1-c1cccs1	inconclusive: -43.8%
CCN1CCN(Cc2nc3cc(NC(=O)COc4ccc([N+](=O)[O-])cc4)ccc3n2C)CC1	inactive: 44.1%
O=C(c1ccc2c(c1)N(Cc1ccc(Cl)cc1)C(=O)c1ccccc1S2(=O)=O)N1CCCCCC1	inconclusive: -59.1%
COc1ccc(OC)c(-n2nnnc2SCC(=O)N2CCN(C(=O)c3ccco3)CC2)c1	inactive: -5.63%
COc1cccc(CN2CCCC(N3CCc4ccccc4C3)C2)c1O (stereo unspecified)	inconclusive: -51.6%
O=C(N/N=C/C=C\c1ccccc1[N+](=O)[O-])c1ccncc1	inconclusive: -53.3%
COc1cc(/C=C/C(=O)OCC(=O)NC2CC2)cc(S(=O)(=O)N2CCc3ccccc32)c1OC	inconclusive: -46.8%
CCCCN1CC(c2nc3ccccc3n2CCCCOc2ccccc2C)CC1=O (stereo unspecified)	active: -68.4%
Cc1ccc(CN2CCN(Cc3ccc(C)s3)CC2CCO)cc1 (stereo unspecified)	inconclusive: -49%
O=C(c1ccc2c(c1)OCO2)C1CCCN(Cc2ccc(F)c(F)c2)C1 (stereo unspecified)	inactive: 5.16%
Cc1cc2c(cc1C)[n+](C)cn2CC(O)COCc1ccccc1 (stereo unspecified)	inactive: -37%
O=C(Nc1cccc(Cl)c1Cl)c1cc(S(=O)(=O)N2CCCCC2)ccc1F	inconclusive: -41.1%
COc1cccc(NC(=O)c2c(-c3ccc(C)cc3)nnc3ccccc23)c1	inactive: 0%
COc1ccc(CN2CCN(C3CCOCC3)CC2CCO)c(C)c1C (stereo unspecified)	inconclusive: -40.8%
COc1ccc(CCNC(=O)C2CC(=O)N(CCc3ccccc3)C2)cc1OC (stereo unspecified)	inconclusive: 0%
COc1ccc(C2C=C(c3ccccc3)Nc3nc(NS(=O)(=O)c4ccccc4)nn32)cc1 (stereo unspecified)	inactive: -7.66%
COc1ccc(C(=O)/C(C#N)=N/Nc2cccc([N+](=O)[O-])c2)cc1	active: -98.3%
CC(CNC(=O)CCn1c(=O)c2cccn2c2ccc(F)cc21)c1ccccc1 (stereo unspecified)	inconclusive: -43.6%
c1ccc(CNc2nc(-c3ccccc3)nc3ccccc23)cc1	inconclusive: -44%
Cc1ccc2c(CNCc3cccc(Cl)c3)c(C(=O)O)n(Cc3ccc(F)cc3Cl)c2c1	inactive: 6.84%

SMILES	activity change, negative = inhibition
O=C(OC1CCCCC1)c1ccc(NC(=O)C2CCCCC2)cc1	inactive: -12.2%
CCN(CC)CCNC(=O)c1ccc(N2CCCCC2)c(NS(=O)(=O)c2ccc(C)cc2)c1	inconclusive: -42.2%
NC(=O)C1=C[C@H](c2ccccc2)C[C@H](OCc2ccc(CO)cc2)O1	inactive: 8.73%
OC(COc1ccc(Cl)cc1Cl)Cn1ccnc1 (stereo unspecified)	inactive: 117%
COc1cc(/C=N/n2nnnc2N)ccc1OC(C)=O	inactive: 11.5%
COc1ccc(CC(=O)N(Cc2ccccc2)c2cccc(C)c2)cc1OC	inconclusive: -49.7%
Cc1ccc(O)c(NC(=O)CSc2n[nH]c(C)c2[N+](=O)[O-])c1	inconclusive: -43.4%
Cn1c(SCC(=O)N2CCOCC2)nnc1-c1ccncc1	inconclusive: -42.3%
O=C(CSc1nc(-c2ccccc2)c(-c2ccccc2)[nH]1)Nc1ccc2c(c1)OCO2	active: -68.4%
CCCCNC(=O)NNc1nc(Cl)cc(C)c1C#N	inconclusive: -44.6%
CCOC(=O)C1(CCOc2ccccc2)CCN(Cc2cc(OC)c3c(c2)OCO3)CC1	inconclusive: -53.4%
O=C(CN(Cc1ccccc1)C(=O)CCl)c1cccc(Br)c1	active: -98.7%
CCC[C@@H](CN[C@@H](CNC)[C@H](C)CC)NCC1CCC(C(C)(C)C)CC1 (stereo partly specified)	active: -99%
C=C1CCN(c2ccc(C(=O)NCc3ccc(C)cc3)cc2[N+](=O)[O-])CC1	inconclusive: -46.1%
CC(=O)N1CCN(c2ccc(Nc3ncnc4c3oc3ccccc34)cc2)CC1	inconclusive: -56.2%
CC1OC(OC2CC(O)C3(CO)C4C(O)CC5(C)C(C6=CC(=O)OC6)CCC5(O)C4CCC3(O)C2)C(O)C(O)C1O (stereo unspecified)	active: -72.3%
O=C(NCC(=O)N1CCN(c2ncc(C(F)(F)F)cc2Cl)CC1)c1ccc(Br)o1	inconclusive: -57.7%
COc1cc(NC(=O)c2c3c(nc4ccccc24)CCC3)cc(OC)c1	active: -102%
C/C(=N/OC(=O)c1ccc(Br)cc1)c1ccc(C)cc1	inconclusive: -56.9%
Cc1c(N/N=C(\C#N)C(=O)c2ccccc2)c(=O)n(-c2ccccc2)n1C	active: -79.1%
CC(=O)c1ccc(N2CCN(C(=O)C3CCN(S(=O)(=O)c4ccc(Br)s4)CC3)CC2)cc1	inconclusive: -43.7%
O=C(CSc1nc2ccccc2c(=O)n1CCCN1CCOCC1)c1c[nH]c2ccccc12	inconclusive: -44.1%

SMILES	activity change, negative = inhibition
CCc1ccc(NC2=CC(=O)C(=O)c3ccccc32)cc1	inactive: -13.9%
CC(=NNC(=S)Nc1ccccc1)c1ccccn1	active: -98.4%
O=C(NC1CCCCC1)C(c1ccccc1)N1CCc2ccccc21 (stereo unspecified)	inconclusive: -42.2%
Cc1cccc(C(=O)NC(=S)Nc2ccc(S(=O)(=O)N(C)c3ccccc3)cc2)c1	inconclusive: -53.7%
Cc1cc(=O)oc(C)c1C(=O)Nc1cnc2ccccc2c1	inactive: 38.4%
O=S(=O)(Nc1ccc2c3c(cccc13)CC2)c1ccccc1	inconclusive: -45.8%
CCCOC(=O)C1C2C=CC(C2)C1C(=O)OCC(=O)c1ccccc1 (stereo unspecified)	inconclusive: -41.1%
c1coc(CNc2c3c(nc4ccccc24)CCC3)c1	active: -68.6%
[O-][n+]1c2c(nn1-c1ccc(Cl)c(Cl)c1)-c1nonc1CC2	inconclusive: -59%
O=C(CCOc1ccccc1)N1CCN(c2ccc(O)cc2)CC1	inconclusive: -54.3%
COC1=C(OC)C(=O)C(Sc2ccc3ccccc3c2)=CC1=O	active: -81.1%
Cn1c(=O)c2c(ncn2CC(=O)N/N=C/C(Br)=C/c2ccccc2)n(C)c1=O	inconclusive: -49.6%
COc1ccccc1CNC(=O)C1(C)CCN1C(=O)Cc1ccc(-c2ccccc2)cc1 (stereo unspecified)	inconclusive: -42.5%
O=c1oc(-c2ccc([N+](=O)[O-])cc2)nc2ccccc12	inactive: 26.4%
COc1ccc(S(=O)(=O)N2CCCCC2)cc1NC(=O)c1ccc2c(c1)OCO2	inconclusive: -51.6%
Cc1cccn2cc(-c3ccc(S(=O)(=O)N4CCOCC4)cc3)nc12	inconclusive: -52.3%
CCOC(=O)Cn1cnc2c(nnn2-c2cccc(OC)c2)c1=O	inconclusive: -53.3%
COc1ccc(S(=O)(=O)Nc2ccc(S(=O)(=O)N(C)C)cc2)cc1[N+](=O)[O-]	inactive: -4.22%
Cn1c(=NC(=O)CCl)sc2ccccc21	active: -99.4%
O=S(=O)(c1ccccc1)[C@@]1(c2ccc(Br)cc2)C[C@@H]2ON=C(c3cccc(Br)c3)[C@@H]2C1	inactive: -18.2%
